The values that follow come from publication PMC8164027.

The target in the assay is T1, Myc-tagged Bcy1 (chromosomal BCY1 epitope tagged with nine Myc epitopes) (S. cerevisiae) (UniProt P07278).
T1 sequence: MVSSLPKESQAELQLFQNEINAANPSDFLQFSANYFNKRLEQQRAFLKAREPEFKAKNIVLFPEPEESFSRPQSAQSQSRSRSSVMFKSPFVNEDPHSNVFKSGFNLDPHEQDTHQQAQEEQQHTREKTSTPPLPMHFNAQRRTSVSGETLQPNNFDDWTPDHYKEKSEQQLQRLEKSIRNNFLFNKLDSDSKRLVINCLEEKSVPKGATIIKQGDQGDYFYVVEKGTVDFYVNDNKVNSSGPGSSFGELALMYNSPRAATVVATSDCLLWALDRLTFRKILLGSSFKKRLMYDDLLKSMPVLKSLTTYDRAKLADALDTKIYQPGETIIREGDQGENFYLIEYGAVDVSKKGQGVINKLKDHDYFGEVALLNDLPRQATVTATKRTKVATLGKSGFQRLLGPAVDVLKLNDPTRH
Briefly: co-IP; Bcy1-Myc precipitated with anti-c-Myc magnetic beads from a tsa1 deletion strain expressing untagged Tsa1 versions; lysis with 50 mM N-ethylmaleimide; wash buffer 500 mM NaCl, 20 mM Tris-HCl pH 8.0, 2 mM MgCl2, 0.5% NP40; Tsa1 detected with anti-Tsa1; non-stress, AZC (5 mM) or hydrogen peroxide (0.4 mM) for 2 h; also in a strain deleted for TPK1.

Changes are numbered by the printed parent chain. Numbers in names are those of the source. Results are given in words; binding and its absence hold for the method and conditions named. In cells and extracts the contact can be indirect. Some results given as binding are weak or reduced against the parent protein; the word gives no strength. Where a sequence is shown, tags or fusion partners need not be part of it.

B1: untagged wild-type Tsa1 (enzyme, UniProt P34760 1-196)
chain: MVAQVQKQAPTFKKTAVVDGVFDEVSLDKYKGKYVVLAFIPLAFTFVCPTEIIAFSEAAKKFEEQGAQVLFASTDSEYSLLAWTNIPRKEGGLGPINIPLLADTNHSLSRDYGVLIEEEGVALRGLFIIDPKGVIRHITINDLPVGRNVDEALRLVEAFQWTDKNGTVLPCNWTPGAATIKPTVEDSKEYFEAANK
As for B1, the binding result is given as “binds”.

B2: untagged Tsa1 resolving cysteine residue mutant (Tsa1-C171S) (enzyme, UniProt P34760 1-196)
chain: B1 chain with C171S
For B2, the binding entry is recorded as “binds”.

B3: untagged Tsa1 peroxidatic cysteine residue mutant (Tsa1-C48S) (enzyme, UniProt P34760 1-196)
chain: B1 chain with C48S
Turning to B3, the binding entry is “binds”.
